# Source: US9937178B2, “Methods of identifying and using MDM2 inhibitors” (DUKE UNIVERSITY, priority 2011, dated 2018)
# At least one structure is not confirmed: it was looked up by name or label, or the drawing left a doubt.
# Experiments:
# [1] = test system: MDM2; experiment: Immunoblot of MDM2 protein levels; type: cell-based; settings: lapatinib-resistant cells, 1 μM dasatinib pre-treatment for 24 hours, then 1 μM lapatinib
# [2] = test system: rBT474, rSKBR3, rAU565 and rSUM190 cells; experiment: Apoptotic cell death (Annexin V FACS) in lapatinib-resistant lines; type: cell-based; settings: dasatinib
# Protocol: FIG. 2 is a set of graphs showing the percentage of cells undergoing apoptotic cell death for each of the four cell lines and their matched resistant cell line in the presence or absence of lapatinib and/or an MDM2 inhibitor, MI-219, as measured by FACS analysis for Annexin V. Results are expressed as mean +/− SEM of Annexin V positive cells.
# BT474, SKBR3, and AU565 cells were obtained from ATCC. SUM190 cells were obtained from Asterand, Inc. All cell lines were cultured in RPMI medium containing 10% fetal bovine serum (FBS). Lapatinib-resistant cells (rBT474, rSKBR3, rAU565, and rSUM190) were established as previously described^14. Cobleigh, et al. J. Clin. Oncol. 17, 2639-2648 (1999). Lapatinib-resistant cells were grown in the presence of 1 μM lapatinib unless otherwise stated.
smiles,measurement,setting,value
Cc1nc(Nc2ncc(C(=O)Nc3c(C)cccc3Cl)s2)cc(N2CCN(CCO)CC2)n1 [dasatinib],MDM2 protein levels,[1],did not affect
same,apoptotic resistance,[2],did not affect
